The values that follow come from the supplement of paper PMC10849652.

Chains of the proteins cited; added tags and fusions are not shown. Lines headed by an entry give the natural chain unless they say otherwise; changes in a name come on top.
UniProt Q8WXE9: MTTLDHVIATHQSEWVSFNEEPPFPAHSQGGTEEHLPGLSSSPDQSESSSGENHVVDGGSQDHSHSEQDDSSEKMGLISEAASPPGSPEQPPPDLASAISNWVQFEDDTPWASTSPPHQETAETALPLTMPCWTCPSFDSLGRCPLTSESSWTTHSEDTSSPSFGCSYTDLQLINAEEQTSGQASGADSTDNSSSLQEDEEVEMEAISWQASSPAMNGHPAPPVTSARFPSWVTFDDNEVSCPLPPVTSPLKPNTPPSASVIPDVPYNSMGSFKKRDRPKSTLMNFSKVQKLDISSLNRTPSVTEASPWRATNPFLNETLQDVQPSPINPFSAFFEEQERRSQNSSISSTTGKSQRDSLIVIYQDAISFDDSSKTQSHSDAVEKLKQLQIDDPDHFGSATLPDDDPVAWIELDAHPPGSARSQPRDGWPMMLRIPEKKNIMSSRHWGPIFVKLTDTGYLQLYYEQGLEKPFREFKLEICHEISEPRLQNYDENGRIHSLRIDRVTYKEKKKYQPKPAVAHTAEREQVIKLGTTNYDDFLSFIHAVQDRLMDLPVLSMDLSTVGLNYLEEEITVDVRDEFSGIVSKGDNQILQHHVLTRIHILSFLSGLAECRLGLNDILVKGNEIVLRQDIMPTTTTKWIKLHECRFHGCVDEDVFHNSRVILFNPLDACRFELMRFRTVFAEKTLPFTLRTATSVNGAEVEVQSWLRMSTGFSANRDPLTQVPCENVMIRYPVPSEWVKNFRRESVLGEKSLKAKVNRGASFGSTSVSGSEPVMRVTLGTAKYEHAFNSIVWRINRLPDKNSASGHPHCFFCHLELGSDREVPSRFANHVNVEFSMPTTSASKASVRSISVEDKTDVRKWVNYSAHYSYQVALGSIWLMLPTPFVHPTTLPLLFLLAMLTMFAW
UniProt Q15543, whole entry, looked up: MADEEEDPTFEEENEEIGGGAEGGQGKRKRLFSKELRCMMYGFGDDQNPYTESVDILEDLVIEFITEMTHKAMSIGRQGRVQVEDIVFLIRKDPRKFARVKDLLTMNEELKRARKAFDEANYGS
UniProt Q15544, whole entry, looked up: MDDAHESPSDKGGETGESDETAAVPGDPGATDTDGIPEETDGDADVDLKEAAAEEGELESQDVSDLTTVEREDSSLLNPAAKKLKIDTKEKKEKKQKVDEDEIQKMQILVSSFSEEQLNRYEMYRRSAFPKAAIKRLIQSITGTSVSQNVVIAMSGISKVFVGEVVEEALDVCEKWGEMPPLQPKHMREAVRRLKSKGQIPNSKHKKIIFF
UniProt P08247, whole entry, looked up: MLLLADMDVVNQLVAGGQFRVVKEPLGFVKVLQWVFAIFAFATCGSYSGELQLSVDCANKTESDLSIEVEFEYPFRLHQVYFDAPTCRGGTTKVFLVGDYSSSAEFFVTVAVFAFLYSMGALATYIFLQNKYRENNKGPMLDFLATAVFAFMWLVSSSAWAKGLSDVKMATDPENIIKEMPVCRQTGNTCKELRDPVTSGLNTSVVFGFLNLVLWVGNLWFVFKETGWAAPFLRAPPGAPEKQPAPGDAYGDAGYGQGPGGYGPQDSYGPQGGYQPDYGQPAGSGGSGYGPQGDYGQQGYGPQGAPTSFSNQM
UniProt Q9Y2Z0: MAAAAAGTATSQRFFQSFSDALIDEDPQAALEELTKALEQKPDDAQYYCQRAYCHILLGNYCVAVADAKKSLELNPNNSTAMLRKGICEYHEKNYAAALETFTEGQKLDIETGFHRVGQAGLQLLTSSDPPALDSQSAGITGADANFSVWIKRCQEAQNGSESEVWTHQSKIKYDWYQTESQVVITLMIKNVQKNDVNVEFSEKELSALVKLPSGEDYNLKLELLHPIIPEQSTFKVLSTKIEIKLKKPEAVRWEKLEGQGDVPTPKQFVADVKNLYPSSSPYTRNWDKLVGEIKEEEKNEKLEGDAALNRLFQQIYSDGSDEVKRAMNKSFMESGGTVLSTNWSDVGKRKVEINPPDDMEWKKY
UniProt Q8WUJ0: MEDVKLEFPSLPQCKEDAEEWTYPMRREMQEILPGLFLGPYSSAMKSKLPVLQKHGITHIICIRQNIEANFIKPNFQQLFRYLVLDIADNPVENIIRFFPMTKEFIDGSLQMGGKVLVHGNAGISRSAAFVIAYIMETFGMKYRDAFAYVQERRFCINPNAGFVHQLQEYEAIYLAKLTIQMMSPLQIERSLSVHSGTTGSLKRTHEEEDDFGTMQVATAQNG
UniProt O43759: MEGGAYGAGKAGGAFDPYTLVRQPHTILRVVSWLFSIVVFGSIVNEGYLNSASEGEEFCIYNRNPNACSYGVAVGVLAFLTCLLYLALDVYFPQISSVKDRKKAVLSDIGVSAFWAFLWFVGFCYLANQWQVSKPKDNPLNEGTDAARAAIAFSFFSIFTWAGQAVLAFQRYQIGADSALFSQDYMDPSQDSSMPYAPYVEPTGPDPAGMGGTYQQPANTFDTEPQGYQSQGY
UniProt Q8N300: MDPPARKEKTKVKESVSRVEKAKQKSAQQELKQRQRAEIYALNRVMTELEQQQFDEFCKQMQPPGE
UniProt Q9ULQ0: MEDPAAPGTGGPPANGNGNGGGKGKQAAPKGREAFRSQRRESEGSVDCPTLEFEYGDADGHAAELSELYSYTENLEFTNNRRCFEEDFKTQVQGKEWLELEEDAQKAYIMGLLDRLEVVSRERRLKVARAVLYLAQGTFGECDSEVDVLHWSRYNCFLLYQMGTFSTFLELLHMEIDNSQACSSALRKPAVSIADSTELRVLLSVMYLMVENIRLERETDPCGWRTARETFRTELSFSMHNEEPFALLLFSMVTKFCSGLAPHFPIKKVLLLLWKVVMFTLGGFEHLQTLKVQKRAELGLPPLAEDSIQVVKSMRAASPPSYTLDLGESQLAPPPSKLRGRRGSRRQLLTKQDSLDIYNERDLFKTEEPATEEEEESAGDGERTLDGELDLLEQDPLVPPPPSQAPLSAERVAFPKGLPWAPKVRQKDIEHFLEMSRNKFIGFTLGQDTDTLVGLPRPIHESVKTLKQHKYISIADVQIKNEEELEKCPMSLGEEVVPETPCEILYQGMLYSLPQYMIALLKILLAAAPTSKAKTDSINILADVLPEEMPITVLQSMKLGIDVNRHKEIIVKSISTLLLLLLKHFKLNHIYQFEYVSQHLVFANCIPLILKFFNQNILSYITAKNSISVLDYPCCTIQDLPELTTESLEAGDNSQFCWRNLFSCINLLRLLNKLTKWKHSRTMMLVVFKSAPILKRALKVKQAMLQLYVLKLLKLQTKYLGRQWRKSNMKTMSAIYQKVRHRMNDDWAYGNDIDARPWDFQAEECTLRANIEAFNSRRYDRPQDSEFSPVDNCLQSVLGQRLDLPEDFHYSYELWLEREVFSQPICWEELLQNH
UniProt Q9BXI6: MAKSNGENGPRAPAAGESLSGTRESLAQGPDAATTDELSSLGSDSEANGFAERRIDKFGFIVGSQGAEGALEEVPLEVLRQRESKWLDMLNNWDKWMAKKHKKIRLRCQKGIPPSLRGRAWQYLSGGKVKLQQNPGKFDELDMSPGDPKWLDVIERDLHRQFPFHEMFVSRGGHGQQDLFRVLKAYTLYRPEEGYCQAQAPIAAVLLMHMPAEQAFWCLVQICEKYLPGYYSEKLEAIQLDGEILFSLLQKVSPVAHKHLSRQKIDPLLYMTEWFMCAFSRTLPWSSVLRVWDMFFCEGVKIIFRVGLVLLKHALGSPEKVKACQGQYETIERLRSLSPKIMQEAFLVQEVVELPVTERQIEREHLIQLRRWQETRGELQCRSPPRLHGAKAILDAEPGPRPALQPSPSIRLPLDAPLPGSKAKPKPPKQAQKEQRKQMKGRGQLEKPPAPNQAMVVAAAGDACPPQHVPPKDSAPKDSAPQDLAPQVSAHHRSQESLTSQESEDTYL
UniProt Q8N2H4: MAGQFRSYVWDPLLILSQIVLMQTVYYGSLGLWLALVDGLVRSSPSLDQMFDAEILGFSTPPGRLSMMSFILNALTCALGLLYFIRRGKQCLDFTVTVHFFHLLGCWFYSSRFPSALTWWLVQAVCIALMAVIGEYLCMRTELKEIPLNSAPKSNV
UniProt Q8TDR2: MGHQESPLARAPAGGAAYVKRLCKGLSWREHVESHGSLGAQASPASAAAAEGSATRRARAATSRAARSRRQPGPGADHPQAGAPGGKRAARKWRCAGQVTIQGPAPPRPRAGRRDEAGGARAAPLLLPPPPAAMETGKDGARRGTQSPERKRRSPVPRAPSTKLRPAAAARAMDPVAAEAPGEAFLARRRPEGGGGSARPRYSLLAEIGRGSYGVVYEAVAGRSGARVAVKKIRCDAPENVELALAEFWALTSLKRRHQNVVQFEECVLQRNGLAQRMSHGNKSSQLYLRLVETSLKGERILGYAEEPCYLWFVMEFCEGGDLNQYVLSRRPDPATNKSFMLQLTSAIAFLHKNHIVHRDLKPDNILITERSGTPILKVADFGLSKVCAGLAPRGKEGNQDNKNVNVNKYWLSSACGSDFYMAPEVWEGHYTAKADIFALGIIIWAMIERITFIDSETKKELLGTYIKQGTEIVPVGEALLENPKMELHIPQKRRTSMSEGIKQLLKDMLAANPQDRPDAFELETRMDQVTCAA
UniProt Q15022: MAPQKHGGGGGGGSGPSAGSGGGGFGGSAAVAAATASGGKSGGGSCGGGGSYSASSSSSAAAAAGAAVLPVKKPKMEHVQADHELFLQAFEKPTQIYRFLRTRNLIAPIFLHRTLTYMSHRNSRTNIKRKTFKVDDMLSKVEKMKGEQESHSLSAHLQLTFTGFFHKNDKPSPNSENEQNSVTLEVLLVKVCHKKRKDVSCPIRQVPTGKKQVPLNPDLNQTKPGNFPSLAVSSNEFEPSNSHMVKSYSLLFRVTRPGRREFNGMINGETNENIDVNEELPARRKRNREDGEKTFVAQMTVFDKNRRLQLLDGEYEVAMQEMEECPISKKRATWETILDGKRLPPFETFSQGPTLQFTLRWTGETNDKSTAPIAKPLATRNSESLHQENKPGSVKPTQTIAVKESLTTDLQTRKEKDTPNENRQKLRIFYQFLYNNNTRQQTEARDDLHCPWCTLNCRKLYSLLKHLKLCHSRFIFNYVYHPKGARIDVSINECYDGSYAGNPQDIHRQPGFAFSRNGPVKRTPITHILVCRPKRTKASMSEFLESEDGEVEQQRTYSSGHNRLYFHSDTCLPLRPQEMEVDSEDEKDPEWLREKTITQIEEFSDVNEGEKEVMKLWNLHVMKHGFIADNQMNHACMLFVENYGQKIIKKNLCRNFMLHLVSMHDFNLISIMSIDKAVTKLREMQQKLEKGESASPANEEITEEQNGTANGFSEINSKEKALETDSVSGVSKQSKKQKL
UniProt Q9UL54: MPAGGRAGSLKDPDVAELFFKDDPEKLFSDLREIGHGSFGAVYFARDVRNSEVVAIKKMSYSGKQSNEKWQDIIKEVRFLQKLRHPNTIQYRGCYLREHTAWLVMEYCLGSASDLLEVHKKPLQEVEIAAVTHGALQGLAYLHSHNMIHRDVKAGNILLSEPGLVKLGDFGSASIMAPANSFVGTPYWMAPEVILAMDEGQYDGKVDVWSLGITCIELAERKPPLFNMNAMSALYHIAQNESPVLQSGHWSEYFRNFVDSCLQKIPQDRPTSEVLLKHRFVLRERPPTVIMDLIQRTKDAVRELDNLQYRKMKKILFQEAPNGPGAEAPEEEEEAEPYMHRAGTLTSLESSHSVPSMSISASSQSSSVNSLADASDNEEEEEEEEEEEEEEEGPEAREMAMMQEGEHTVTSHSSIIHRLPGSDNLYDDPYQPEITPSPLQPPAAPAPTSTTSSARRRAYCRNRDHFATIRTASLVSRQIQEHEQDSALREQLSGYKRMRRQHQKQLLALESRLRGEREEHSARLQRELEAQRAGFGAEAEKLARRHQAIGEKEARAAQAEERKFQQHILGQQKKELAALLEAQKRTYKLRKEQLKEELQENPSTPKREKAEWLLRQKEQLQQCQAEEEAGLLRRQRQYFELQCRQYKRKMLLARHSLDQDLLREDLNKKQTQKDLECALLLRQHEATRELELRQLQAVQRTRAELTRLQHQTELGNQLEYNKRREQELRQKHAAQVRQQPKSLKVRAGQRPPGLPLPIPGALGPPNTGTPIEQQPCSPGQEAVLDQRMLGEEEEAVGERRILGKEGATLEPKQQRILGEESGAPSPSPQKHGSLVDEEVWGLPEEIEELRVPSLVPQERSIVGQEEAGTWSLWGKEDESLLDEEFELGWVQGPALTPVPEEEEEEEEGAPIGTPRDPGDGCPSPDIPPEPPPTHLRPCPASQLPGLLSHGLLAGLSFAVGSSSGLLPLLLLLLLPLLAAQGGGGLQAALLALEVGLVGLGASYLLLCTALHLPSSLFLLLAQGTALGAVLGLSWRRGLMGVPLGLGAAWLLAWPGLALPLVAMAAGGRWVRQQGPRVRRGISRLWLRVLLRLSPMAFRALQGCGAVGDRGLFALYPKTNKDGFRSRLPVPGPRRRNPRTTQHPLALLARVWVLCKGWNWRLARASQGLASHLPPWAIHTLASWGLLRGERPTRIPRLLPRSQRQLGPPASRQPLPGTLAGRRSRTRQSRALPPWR

Some of the results follow.

Compound in one test: Cc1cc(Nc2cc(N3CCN(C)CC3)nc(Sc3ccc(NC(=O)C4CC4)cc3)n2)n[nH]1 [tozasertib]
Nature of the test: log2 fold change, soluble protein after heating vs DMSO (PISA); higher = thermal stabilisation; K562 cells, 10 uM, 30 min; active = over 0.2 and 3.5 SD of the protein, either way, in both replicates (recomputed). In short, it runs like this: (§1)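 K562 cells at 2×10^6 cells/mL were treated for 30 min with 10 μM compound, and aliquots were heated for 3 min over 48°C-58°C before pooling. Extraction used PBS with 0.5% NP-40 at 4°C, and soluble protein was the supernatant after 21,000xg for 90 min, measured by TMTpro 16plex LC-MS/MS with channel sums equalised. Thermal stability values, relative to control samples and from duplicates, are log2 fold changes.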
Take STON2 isoform 3 (UniProt Q8WXE9): the log2 fold change is inactive: -0.122.

Regarding TBC1D12 (UniProt O60347), the log2 fold change was inactive: -0.149.

Take STOML1 (UniProt Q9UBI4): the log2 fold change was inactive: 0.

With SYTL4 (UniProt Q96C24), the log2 fold change was inactive: -0.108.

As for TAF13 (UniProt Q15543), the log2 fold change was inactive: -0.107.

Regarding TAF11 (UniProt Q15544), the log2 fold change was inactive: -0.145.

On to SYP (UniProt P08247), for which the log2 fold change was inactive: 0.026.

As for STRN3 isoform 2 (UniProt Q13033), the log2 fold change is inactive: -0.098.

SUGT1 isoform 2 (UniProt Q9Y2Z0): the log2 fold change is inactive: -0.081.

On to STYX (UniProt Q8WUJ0), for which the log2 fold change is inactive: 0.115.

For the target SYNGR1 isoform 3 (UniProt O43759), the log2 fold change is inactive: -0.219.

Take TAB2 (UniProt Q9NYJ8): the log2 fold change was inactive: 0.064.

In the case of SVBP (UniProt Q8N300), the log2 fold change was inactive: -0.012.

In the case of STRIP2 (UniProt Q9ULQ0), the log2 fold change is inactive: -0.003.

TBC1D10A (UniProt Q9BXI6): the log2 fold change is inactive: -0.105.

Compound in another test: Cc1cc(SCc2sc(-c3ccc(C(F)(F)F)cc3)nc2C)ccc1OCC(=O)O
Described as above. In short, it runs like this:
as §1
With STK36 (UniProt Q9NRP7), the log2 fold change is inactive: 0.036.

For STK40 isoform 4 (UniProt Q8N2I9), the log2 fold change was inactive: 0.086.

Regarding SYK (UniProt P43405), the log2 fold change was inactive: 0.405.

Take SYS1 (UniProt Q8N2H4): the log2 fold change was inactive: -0.051.

Consider SUSD1 isoform 2 (UniProt Q6UWL2), for which the log2 fold change was inactive: 0.03.

For TACC2 (UniProt O95359), the log2 fold change is inactive: -0.005.

In the case of STK35 (UniProt Q8TDR2), the log2 fold change is inactive: -0.002.

Consider TAF6L (UniProt Q9Y6J9), for which the log2 fold change was inactive: -0.121.

For the target SYTL4 (UniProt Q96C24), the log2 fold change is inactive: -0.082.

Consider TAF13 (UniProt Q15543), for which the log2 fold change was inactive: 0.028.

Consider TAF11 (UniProt Q15544), for which the log2 fold change is inactive: -0.033.

Regarding SYP (UniProt P08247), the log2 fold change was inactive: -0.03.

For SUGT1 isoform 2 (UniProt Q9Y2Z0), the log2 fold change was inactive: 0.084.

SUZ12 (UniProt Q15022): the log2 fold change is inactive: 0.103.

Take TAZ (UniProt Q16635): the log2 fold change is inactive: -0.012.

For STYX (UniProt Q8WUJ0), the log2 fold change was inactive: 0.194.

For SVBP (UniProt Q8N300), the log2 fold change was inactive: -0.079.

On to STRIP2 (UniProt Q9ULQ0), for which the log2 fold change was inactive: 0.007.

As for TBC1D10A (UniProt Q9BXI6), the log2 fold change was inactive: 0.1.

Compound in another test: Cc1ccc(-n2nc(C(C)(C)C)cc2NC(=O)Nc2ccc(OCCN3CCOCC3)c3ccccc23)cc1 [doramapimod]
The test is described as above. In short, it runs like this:
as §1
Take SUPT7L (UniProt O94864): the log2 fold change was inactive: -0.002.

For the target STON2 isoform 3 (UniProt Q8WXE9), the log2 fold change is inactive: 0.036.

Consider SYK (UniProt P43405), for which the log2 fold change is inactive: 0.179.

In the case of SUSD1 isoform 2 (UniProt Q6UWL2), the log2 fold change is inactive: -0.071.

With TAOK2 (UniProt Q9UL54), the log2 fold change was inactive: -0.036.

As for STXBP4 (UniProt Q6ZWJ1), the log2 fold change was inactive: 0.143.

Regarding SYP (UniProt P08247), the log2 fold change is inactive: 0.028.

On to STRN3 isoform 2 (UniProt Q13033), for which the log2 fold change is inactive: 0.043.

Regarding SUGT1 isoform 2 (UniProt Q9Y2Z0), the log2 fold change was inactive: -0.031.

For the target TAF5 (UniProt Q15542), the log2 fold change is inactive: 0.214.

For the target SUZ12 (UniProt Q15022), the log2 fold change is inactive: 0.038.

For the target TBC1D10A (UniProt Q9BXI6), the log2 fold change was inactive: -0.027.

Compound in another test: Cc1ccc(C(=O)N(CCCN)[C@@H](c2nc3cc(Cl)ccc3c(=O)n2Cc2ccccc2)C(C)C)cc1 [ispinesib]
Described as above. In short, it runs like this:
as §1
Consider STK36 (UniProt Q9NRP7), for which the log2 fold change was inactive: -0.209.

As for SUPT7L (UniProt O94864), the log2 fold change is inactive: 0.068.

With STON2 isoform 3 (UniProt Q8WXE9), the log2 fold change is inactive: -0.173.

For the target TATDN1 isoform 2 (UniProt Q6P1N9), the log2 fold change was inactive: -0.154.

Turning to SYK (UniProt P43405), the log2 fold change was inactive: -0.216.

Consider TACC3 (UniProt C9JWI7), for which the log2 fold change is inactive: -0.123.

In the case of SYS1 (UniProt Q8N2H4), the log2 fold change is inactive: -0.128.

Take SUPT3H isoform 4 (UniProt O75486): the log2 fold change was inactive: 0.022.

As to STOML1 (UniProt Q9UBI4), the log2 fold change is inactive: -0.508.

In the case of TACC2 (UniProt O95359), the log2 fold change was inactive: 0.145.

For STK35 (UniProt Q8TDR2), the log2 fold change is inactive: 0.251.

Regarding TAF6L (UniProt Q9Y6J9), the log2 fold change is inactive: -0.045.

Turning to TAOK2 (UniProt Q9UL54), the log2 fold change is inactive: 0.035.

Consider TASOR (UniProt Q9UK61), for which the log2 fold change is inactive: -0.031.

For TAF13 (UniProt Q15543), the log2 fold change was inactive: 0.082.

Turning to TAF11 (UniProt Q15544), the log2 fold change is inactive: 0.025.

Consider SYP (UniProt P08247), for which the log2 fold change is inactive: -0.103.

Turning to SUGT1 isoform 2 (UniProt Q9Y2Z0), the log2 fold change is inactive: -0.079.

Consider TAF5 (UniProt Q15542), for which the log2 fold change was inactive: -0.255.

As to SUZ12 (UniProt Q15022), the log2 fold change was inactive: 0.097.

In the case of TAZ (UniProt Q16635), the log2 fold change is inactive: -0.216.

Regarding STYX (UniProt Q8WUJ0), the log2 fold change was inactive: 0.192.

TAB2 (UniProt Q9NYJ8): the log2 fold change was inactive: -0.183.

Consider SVBP (UniProt Q8N300), for which the log2 fold change is inactive: 0.011.

On to STRIP2 (UniProt Q9ULQ0), for which the log2 fold change is inactive: -0.063.

Consider TBC1D10A (UniProt Q9BXI6), for which the log2 fold change was inactive: -0.216.
